# Counter-ions that a name gives are not always drawn. The list shows a part of the results. The calls rarely recur for the same compound in another form.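 In K562 cells expressing nanoluciferase-fused kinases, luminescence was recorded at 4 h intervals between 2 and 18 h, normalized as percent of control with DMSO at 100% and a positive control at 0%. A significant (2 sigma) signal drop marks a time point as decreased. The authors' rule for a hit is not shown and takes in more than the number of time points.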
# The chains behind the UniProt entries cited, without tags or fusion partners. Where a name states a change or a piece, a line headed by the entry shows the natural chain unless it says otherwise.
# UniProt P28482, whole entry: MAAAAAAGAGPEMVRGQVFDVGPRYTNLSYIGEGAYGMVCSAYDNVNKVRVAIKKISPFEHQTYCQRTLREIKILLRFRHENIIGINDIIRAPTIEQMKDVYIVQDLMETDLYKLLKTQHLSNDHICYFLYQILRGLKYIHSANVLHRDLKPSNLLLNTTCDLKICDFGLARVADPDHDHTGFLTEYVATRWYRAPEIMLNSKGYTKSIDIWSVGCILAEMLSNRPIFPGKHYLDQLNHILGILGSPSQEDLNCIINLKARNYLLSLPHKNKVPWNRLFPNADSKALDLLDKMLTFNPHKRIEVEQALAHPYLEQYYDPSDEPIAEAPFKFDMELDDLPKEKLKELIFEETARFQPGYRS
# UniProt P31152, whole entry: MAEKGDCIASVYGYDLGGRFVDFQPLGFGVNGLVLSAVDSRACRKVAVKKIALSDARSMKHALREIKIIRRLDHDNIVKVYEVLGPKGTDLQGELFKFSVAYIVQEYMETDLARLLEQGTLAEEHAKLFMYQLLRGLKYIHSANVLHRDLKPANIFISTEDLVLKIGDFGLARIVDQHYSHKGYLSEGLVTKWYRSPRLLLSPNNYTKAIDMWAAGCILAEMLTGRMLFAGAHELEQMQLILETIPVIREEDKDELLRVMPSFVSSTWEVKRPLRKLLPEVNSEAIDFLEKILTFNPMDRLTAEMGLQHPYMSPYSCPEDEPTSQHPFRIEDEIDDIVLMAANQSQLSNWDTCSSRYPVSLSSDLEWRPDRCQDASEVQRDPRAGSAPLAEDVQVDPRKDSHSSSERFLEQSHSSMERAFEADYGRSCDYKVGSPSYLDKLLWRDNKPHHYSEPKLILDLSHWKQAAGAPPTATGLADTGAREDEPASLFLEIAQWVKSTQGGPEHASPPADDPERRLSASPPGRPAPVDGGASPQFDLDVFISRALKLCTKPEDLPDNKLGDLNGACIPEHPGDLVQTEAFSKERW
# UniProt P49137, whole entry, looked up: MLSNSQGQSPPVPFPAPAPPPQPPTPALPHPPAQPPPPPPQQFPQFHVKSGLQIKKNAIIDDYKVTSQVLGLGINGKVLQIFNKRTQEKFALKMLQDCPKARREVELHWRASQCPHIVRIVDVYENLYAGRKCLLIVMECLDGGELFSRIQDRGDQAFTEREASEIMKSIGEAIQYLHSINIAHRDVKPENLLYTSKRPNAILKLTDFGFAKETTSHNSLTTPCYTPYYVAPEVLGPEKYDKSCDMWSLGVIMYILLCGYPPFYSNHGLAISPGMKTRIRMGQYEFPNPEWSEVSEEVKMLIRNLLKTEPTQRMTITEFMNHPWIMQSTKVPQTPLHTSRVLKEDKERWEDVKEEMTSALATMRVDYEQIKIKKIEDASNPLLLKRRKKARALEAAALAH
# UniProt Q9BUB5: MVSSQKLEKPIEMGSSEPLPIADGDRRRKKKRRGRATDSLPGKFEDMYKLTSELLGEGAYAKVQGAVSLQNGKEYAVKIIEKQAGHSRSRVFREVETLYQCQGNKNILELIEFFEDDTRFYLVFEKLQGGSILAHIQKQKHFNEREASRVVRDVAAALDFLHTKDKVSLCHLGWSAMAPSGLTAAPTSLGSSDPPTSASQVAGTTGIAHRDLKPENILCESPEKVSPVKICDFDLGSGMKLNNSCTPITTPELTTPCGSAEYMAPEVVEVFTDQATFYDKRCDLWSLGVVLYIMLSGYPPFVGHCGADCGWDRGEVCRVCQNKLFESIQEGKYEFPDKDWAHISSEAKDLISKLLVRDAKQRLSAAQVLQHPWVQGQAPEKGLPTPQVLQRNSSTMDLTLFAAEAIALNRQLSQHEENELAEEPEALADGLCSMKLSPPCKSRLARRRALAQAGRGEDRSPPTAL
# UniProt Q16620, whole entry, looked up: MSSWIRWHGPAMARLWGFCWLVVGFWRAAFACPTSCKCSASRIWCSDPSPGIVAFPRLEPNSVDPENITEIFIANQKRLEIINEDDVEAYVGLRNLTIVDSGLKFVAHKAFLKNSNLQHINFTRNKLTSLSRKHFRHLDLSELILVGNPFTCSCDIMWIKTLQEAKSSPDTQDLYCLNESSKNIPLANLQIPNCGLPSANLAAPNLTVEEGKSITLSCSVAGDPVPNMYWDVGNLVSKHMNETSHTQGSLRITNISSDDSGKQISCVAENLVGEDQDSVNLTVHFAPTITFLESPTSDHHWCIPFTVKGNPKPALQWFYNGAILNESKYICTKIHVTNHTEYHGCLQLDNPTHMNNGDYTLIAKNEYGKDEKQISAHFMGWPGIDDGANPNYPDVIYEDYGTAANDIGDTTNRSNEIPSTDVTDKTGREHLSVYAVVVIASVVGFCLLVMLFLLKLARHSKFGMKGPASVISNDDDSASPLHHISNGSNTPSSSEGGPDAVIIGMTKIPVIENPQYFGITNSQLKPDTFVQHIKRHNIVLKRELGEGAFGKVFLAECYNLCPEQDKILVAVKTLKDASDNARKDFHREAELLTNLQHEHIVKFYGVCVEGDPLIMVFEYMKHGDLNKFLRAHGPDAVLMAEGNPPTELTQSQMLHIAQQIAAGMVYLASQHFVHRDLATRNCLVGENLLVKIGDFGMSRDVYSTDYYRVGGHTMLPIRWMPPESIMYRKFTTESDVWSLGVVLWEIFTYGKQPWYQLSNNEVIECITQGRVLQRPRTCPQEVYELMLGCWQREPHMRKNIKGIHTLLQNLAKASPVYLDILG
# UniProt Q16288, whole entry, looked up: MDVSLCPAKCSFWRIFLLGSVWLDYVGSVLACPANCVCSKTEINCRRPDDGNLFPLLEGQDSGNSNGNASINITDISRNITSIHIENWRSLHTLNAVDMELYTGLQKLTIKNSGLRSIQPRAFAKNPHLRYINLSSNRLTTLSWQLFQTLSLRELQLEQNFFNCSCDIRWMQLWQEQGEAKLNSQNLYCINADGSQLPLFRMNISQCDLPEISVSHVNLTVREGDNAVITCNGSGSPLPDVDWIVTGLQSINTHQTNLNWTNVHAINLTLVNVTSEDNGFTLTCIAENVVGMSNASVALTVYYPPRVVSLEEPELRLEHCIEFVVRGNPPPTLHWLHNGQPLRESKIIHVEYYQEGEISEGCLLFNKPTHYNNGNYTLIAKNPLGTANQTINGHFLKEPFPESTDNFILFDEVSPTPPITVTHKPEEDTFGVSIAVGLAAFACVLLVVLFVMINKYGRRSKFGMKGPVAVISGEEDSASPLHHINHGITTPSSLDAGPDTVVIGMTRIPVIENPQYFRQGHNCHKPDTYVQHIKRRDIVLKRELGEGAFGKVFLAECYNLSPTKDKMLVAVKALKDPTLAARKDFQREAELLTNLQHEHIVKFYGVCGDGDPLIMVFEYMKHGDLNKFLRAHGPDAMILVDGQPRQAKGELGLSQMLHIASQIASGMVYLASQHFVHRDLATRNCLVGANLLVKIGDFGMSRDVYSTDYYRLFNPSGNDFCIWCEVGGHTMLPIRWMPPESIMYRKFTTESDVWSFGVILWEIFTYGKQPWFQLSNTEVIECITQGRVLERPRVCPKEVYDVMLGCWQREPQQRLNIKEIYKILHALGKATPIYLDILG
# UniProt O96013: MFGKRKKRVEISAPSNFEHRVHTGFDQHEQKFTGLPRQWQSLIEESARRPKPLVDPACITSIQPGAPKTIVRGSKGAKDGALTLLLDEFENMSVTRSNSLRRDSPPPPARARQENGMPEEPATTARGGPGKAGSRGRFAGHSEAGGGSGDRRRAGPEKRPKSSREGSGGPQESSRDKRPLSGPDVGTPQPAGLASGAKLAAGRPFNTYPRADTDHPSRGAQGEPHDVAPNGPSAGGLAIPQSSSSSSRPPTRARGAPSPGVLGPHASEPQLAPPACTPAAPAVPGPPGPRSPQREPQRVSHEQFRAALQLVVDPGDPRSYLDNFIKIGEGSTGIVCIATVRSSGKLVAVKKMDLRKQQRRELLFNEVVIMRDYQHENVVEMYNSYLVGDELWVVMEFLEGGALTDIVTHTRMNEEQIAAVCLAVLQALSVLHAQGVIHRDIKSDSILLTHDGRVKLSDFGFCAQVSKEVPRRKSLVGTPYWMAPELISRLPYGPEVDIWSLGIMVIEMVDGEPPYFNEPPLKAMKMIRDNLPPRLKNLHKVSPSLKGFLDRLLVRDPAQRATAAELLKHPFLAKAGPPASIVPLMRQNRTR
# UniProt Q96KB5: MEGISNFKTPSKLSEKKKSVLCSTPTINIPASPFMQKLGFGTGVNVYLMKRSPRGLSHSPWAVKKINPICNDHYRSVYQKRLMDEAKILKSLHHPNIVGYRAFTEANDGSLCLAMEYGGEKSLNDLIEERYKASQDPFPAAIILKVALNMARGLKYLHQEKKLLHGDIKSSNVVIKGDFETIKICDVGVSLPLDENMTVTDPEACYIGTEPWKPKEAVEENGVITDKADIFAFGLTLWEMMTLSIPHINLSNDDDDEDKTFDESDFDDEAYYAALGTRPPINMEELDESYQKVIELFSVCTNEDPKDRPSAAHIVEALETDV
# UniProt P09619, whole entry: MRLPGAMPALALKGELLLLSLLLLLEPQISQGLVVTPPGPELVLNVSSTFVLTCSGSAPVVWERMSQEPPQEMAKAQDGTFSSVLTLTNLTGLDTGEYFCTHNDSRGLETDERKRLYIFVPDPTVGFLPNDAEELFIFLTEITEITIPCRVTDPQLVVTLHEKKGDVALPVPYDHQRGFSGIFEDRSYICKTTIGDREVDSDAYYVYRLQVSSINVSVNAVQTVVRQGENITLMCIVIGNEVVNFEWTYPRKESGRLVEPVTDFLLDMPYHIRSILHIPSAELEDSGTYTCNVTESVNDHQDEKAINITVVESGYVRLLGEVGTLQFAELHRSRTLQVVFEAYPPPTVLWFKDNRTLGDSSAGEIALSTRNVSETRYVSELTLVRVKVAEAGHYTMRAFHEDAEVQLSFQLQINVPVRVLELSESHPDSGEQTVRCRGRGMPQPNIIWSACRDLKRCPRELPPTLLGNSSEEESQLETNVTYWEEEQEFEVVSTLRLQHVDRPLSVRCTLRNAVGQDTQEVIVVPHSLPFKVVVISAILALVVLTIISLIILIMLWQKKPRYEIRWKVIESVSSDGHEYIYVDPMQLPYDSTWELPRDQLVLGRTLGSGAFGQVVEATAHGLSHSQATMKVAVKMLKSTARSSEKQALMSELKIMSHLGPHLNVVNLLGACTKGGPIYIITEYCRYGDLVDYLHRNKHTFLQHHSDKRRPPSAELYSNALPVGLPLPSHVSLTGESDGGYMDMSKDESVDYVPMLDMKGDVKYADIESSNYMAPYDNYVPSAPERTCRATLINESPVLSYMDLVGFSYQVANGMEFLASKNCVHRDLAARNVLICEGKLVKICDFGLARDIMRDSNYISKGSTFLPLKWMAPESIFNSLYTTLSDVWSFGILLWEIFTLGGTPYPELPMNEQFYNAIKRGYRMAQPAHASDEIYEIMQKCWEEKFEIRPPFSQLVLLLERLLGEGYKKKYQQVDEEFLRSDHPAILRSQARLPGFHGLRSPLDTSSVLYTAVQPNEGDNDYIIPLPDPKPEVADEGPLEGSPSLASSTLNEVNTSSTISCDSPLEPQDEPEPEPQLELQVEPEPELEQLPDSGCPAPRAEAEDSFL
# UniProt Q15118, whole entry, looked up: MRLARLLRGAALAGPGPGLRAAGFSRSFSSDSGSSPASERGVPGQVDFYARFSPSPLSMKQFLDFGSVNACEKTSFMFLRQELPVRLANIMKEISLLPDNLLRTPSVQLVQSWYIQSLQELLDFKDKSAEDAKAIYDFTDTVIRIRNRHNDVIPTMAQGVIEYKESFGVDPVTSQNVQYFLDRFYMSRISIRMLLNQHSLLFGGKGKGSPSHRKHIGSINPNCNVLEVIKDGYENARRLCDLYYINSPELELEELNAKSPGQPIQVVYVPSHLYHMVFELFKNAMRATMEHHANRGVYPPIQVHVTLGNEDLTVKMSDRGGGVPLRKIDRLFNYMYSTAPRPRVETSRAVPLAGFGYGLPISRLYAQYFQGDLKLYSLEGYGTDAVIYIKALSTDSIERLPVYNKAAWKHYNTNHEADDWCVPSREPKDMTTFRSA
# How the values were obtained:
# Test in all cases: kinase-Nluc reporter destabilization hit call (1 = scored as downregulated) (binary); higher = compound decreases kinase abundance
# Conditions in all cases: K562; 2-18 h
# MAPK1 = MAPK1 (UniProt P28482)
# MAPK4 = MAPK4 (UniProt P31152)
# MAPKAPK2 = MAPKAPK2 (UniProt P49137)
# MKNK1 = MKNK1 (UniProt Q9BUB5)
# NTRK2 = NTRK2 (UniProt Q16620)
# NTRK3 = NTRK3 (UniProt Q16288)
# PAK4 = PAK4 (UniProt O96013)
# PBK = PBK (UniProt Q96KB5)
# PDGFRB = PDGFRB (UniProt P09619)
# PDK1 = PDK1 (UniProt Q15118)
SMILES,kinase-Nluc reporter destabilization hit call (MAPK1),kinase-Nluc reporter destabilization hit call (MAPK4),kinase-Nluc reporter destabilization hit call (MAPKAPK2),kinase-Nluc reporter destabilization hit call (MKNK1),kinase-Nluc reporter destabilization hit call (NTRK2),kinase-Nluc reporter destabilization hit call (NTRK3),kinase-Nluc reporter destabilization hit call (PAK4),kinase-Nluc reporter destabilization hit call (PBK),kinase-Nluc reporter destabilization hit call (PDGFRB),kinase-Nluc reporter destabilization hit call (PDK1)
CCn1c(-c2nonc2N)nc2c(C#CC(C)(C)O)ncc(OC[C@H]3CCCNC3)c21 (10 µM),inactive: 0,inactive: 0,inactive: 0,inactive: 0,inactive: 0,inactive: 0,inactive: 0,inactive: 0,inactive: 0,inactive: 0
O=Nc1c(-c2c(O)[nH]c3cc(Br)ccc23)[nH]c2ccccc12 [GSK 3 Inhibitor IX] (2.5 µM),inactive: 0,inactive: 0,inactive: 0,inactive: 0,inactive: 0,inactive: 0,inactive: 0,inactive: 0,inactive: 0,inactive: 0
O=C(O)c1ccc(/C=C/S(=O)(=O)Cc2ccc(Cl)cc2)cc1 [Recilisib] (10 µM),inactive: 0,inactive: 0,inactive: 0,inactive: 0,inactive: 0,inactive: 0,inactive: 0,inactive: 0,inactive: 0,inactive: 0
O=c1cc(-c2ccccc2)oc2cc(O[C@@H]3O[C@H](CO[C@@H]4O[C@H](CO)[C@@H](O)[C@H](O)[C@H]4O)[C@@H](O)[C@H](O)[C@H]3O)c(O)c(O)c12 [Oroxin B] (10 µM),inactive: 0,inactive: 0,inactive: 0,inactive: 0,inactive: 0,inactive: 0,inactive: 0,inactive: 0,inactive: 0,inactive: 0
CNC(=O)CNc1cnc2ccc(-c3ccc(OC)c(OC)c3)cc2n1 (10 µM),inactive: 0,inactive: 0,inactive: 0,inactive: 0,inactive: 0,inactive: 0,inactive: 0,inactive: 0,inactive: 0,inactive: 0
COc1ccc(Br)cc1NC(=O)Nc1cccc2c1ccn2Cc1ccnc(N)c1 (2.5 µM),inactive: 0,inactive: 0,inactive: 0,inactive: 0,inactive: 0,inactive: 0,inactive: 0,inactive: 0,inactive: 0,inactive: 0
O=C1CC[C@H](NC(=O)Cc2ccccc2)C(=O)N1 [Antineoplaston A10] (10 µM),inactive: 0,inactive: 0,inactive: 0,inactive: 0,inactive: 0,inactive: 0,inactive: 0,inactive: 0,inactive: 0,inactive: 0
CCCCCc1ccc(/C=C/[C@H](O)[C@@H](CO)NC)cc1 [SK1-I (hydrochloride)] (10 µM),inactive: 0,inactive: 0,inactive: 0,inactive: 0,inactive: 0,inactive: 0,inactive: 0,inactive: 0,inactive: 0,inactive: 0
O=C(O)c1cc(N(Cc2ccccc2O)Cc2cc(O)ccc2O)ccc1O [Lavendustin A] (10 µM),inactive: 0,inactive: 0,inactive: 0,inactive: 0,inactive: 0,inactive: 0,inactive: 0,inactive: 0,inactive: 0,inactive: 0
COc1cc(-c2cc(OP(=O)(O)O)cc(-c3cc(OC)c(OC)c(OC)c3)c2)cc(OC)c1OC [Stafia-1] (10 µM),inactive: 0,inactive: 0,inactive: 0,inactive: 0,inactive: 0,inactive: 0,inactive: 0,inactive: 0,inactive: 0,inactive: 0
CNC(=O)c1cc2c(Oc3ccc(NC(=O)C4(C(=O)Nc5ccc(F)cc5)CC4)cc3)ccnc2cc1OC (2.5 µM),inactive: 0,inactive: 0,inactive: 0,inactive: 0,inactive: 0,inactive: 0,inactive: 0,inactive: 0,active: 1,inactive: 0
Cc1cc(Nc2cc(N)ncn2)c(=O)n2c1C(=O)NC21CCCCC1 [Tomivosertib] (10 µM),inactive: 0,inactive: 0,inactive: 0,inactive: 0,inactive: 0,inactive: 0,inactive: 0,inactive: 0,inactive: 0,inactive: 0
COC(=O)Nc1ccc(-c2nc(N3CCOCC3)c3cnn(C4CCN(C(=O)OC)CC4)c3n2)cc1 (10 µM),inactive: 0,inactive: 0,inactive: 0,inactive: 0,inactive: 0,inactive: 0,inactive: 0,inactive: 0,inactive: 0,inactive: 0
Cc1cc(O)c2c(c1)C(=O)c1cccc(O)c1C2=O [Chrysophanol] (2 µM),inactive: 0,inactive: 0,inactive: 0,inactive: 0,inactive: 0,inactive: 0,inactive: 0,inactive: 0,inactive: 0,inactive: 0
Fc1ccc2[nH]ccc2c1-c1nc(N2CCOCC2)c2sc(CN3CCN(CC4CC4)CC3)cc2n1 (10 µM),inactive: 0,inactive: 0,inactive: 0,inactive: 0,inactive: 0,inactive: 0,inactive: 0,inactive: 0,inactive: 0,inactive: 0

# Reference: the supplement of paper PMC12823440, “Inhibitors supercharge kinase turnover through native proteolytic circuits” (Nature, 2025)
